Reference: the supplement of paper PMC10849652
This is one part of the list.

Protein sequences, listed by entry. Tags and fused reporters are not part of them. Lines headed by an entry give the natural chain unless they say otherwise; changes in a name come on top.
UniProt P27448: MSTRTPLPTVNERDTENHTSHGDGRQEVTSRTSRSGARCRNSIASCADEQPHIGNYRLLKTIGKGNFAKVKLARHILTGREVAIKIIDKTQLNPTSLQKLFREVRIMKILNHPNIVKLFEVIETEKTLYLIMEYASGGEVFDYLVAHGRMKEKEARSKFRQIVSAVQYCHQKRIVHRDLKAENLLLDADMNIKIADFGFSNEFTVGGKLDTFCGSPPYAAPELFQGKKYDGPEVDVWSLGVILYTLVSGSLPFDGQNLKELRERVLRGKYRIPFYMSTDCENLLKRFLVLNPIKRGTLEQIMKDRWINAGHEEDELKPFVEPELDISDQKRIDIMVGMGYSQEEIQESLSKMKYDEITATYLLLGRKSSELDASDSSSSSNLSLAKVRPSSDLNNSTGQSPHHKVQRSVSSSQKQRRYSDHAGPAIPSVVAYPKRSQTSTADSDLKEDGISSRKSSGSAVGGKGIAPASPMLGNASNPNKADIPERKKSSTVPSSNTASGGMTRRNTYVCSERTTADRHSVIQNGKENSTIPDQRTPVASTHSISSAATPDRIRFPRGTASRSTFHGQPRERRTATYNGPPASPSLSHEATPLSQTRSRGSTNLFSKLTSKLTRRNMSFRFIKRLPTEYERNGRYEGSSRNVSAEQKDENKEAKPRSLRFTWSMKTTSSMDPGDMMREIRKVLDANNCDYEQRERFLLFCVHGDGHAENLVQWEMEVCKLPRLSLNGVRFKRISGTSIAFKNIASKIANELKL
UniProt Q9UNF1: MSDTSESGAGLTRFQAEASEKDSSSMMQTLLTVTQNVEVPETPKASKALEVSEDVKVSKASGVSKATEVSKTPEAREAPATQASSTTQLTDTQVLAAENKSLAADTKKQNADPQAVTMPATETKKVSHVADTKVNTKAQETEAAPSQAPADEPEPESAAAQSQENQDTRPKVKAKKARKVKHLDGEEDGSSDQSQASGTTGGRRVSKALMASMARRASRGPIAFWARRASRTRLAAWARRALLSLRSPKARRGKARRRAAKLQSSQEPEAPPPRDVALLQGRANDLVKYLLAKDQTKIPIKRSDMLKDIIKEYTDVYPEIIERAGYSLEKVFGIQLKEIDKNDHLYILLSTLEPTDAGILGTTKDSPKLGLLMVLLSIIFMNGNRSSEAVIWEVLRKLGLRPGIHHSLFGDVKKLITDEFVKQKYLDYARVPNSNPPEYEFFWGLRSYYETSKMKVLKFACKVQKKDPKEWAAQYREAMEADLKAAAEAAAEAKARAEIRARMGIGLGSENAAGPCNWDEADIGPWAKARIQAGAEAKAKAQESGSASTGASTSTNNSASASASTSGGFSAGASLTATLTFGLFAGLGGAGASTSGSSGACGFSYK
UniProt Q5VWZ2: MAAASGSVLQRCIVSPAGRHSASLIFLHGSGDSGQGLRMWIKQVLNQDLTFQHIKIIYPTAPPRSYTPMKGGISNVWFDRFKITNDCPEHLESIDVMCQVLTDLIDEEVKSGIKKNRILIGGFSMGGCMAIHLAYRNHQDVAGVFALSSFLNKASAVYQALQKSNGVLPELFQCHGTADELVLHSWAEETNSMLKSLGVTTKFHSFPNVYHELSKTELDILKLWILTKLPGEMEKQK
UniProt Q8N653: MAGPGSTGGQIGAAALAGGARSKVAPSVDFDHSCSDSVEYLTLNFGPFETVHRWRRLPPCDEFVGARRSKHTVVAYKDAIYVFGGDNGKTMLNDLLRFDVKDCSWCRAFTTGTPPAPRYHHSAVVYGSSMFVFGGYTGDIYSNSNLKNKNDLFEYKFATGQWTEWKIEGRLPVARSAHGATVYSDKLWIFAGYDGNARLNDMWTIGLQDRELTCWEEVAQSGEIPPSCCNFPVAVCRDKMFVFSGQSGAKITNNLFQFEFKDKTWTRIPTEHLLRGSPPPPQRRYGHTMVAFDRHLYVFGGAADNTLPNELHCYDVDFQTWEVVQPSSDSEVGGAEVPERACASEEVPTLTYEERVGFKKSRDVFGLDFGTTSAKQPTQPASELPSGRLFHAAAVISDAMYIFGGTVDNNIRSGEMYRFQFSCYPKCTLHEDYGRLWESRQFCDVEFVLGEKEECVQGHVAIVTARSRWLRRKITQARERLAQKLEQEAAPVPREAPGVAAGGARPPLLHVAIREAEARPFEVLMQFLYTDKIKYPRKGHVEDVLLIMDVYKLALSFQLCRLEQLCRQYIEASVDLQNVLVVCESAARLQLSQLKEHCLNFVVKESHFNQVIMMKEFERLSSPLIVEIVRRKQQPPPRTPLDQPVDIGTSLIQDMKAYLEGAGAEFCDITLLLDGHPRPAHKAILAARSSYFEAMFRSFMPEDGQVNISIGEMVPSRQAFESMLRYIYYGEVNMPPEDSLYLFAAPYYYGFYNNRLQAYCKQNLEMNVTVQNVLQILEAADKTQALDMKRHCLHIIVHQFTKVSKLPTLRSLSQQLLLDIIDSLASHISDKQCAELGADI
UniProt P43362: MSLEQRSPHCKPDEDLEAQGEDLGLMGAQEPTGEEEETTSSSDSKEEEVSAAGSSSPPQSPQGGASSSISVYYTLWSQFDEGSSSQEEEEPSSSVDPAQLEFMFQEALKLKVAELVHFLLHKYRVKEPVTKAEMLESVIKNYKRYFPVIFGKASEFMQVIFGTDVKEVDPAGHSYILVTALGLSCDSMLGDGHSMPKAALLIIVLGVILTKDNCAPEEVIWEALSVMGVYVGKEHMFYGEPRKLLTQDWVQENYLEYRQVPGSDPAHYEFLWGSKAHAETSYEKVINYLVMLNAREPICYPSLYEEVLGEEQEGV
UniProt O15021: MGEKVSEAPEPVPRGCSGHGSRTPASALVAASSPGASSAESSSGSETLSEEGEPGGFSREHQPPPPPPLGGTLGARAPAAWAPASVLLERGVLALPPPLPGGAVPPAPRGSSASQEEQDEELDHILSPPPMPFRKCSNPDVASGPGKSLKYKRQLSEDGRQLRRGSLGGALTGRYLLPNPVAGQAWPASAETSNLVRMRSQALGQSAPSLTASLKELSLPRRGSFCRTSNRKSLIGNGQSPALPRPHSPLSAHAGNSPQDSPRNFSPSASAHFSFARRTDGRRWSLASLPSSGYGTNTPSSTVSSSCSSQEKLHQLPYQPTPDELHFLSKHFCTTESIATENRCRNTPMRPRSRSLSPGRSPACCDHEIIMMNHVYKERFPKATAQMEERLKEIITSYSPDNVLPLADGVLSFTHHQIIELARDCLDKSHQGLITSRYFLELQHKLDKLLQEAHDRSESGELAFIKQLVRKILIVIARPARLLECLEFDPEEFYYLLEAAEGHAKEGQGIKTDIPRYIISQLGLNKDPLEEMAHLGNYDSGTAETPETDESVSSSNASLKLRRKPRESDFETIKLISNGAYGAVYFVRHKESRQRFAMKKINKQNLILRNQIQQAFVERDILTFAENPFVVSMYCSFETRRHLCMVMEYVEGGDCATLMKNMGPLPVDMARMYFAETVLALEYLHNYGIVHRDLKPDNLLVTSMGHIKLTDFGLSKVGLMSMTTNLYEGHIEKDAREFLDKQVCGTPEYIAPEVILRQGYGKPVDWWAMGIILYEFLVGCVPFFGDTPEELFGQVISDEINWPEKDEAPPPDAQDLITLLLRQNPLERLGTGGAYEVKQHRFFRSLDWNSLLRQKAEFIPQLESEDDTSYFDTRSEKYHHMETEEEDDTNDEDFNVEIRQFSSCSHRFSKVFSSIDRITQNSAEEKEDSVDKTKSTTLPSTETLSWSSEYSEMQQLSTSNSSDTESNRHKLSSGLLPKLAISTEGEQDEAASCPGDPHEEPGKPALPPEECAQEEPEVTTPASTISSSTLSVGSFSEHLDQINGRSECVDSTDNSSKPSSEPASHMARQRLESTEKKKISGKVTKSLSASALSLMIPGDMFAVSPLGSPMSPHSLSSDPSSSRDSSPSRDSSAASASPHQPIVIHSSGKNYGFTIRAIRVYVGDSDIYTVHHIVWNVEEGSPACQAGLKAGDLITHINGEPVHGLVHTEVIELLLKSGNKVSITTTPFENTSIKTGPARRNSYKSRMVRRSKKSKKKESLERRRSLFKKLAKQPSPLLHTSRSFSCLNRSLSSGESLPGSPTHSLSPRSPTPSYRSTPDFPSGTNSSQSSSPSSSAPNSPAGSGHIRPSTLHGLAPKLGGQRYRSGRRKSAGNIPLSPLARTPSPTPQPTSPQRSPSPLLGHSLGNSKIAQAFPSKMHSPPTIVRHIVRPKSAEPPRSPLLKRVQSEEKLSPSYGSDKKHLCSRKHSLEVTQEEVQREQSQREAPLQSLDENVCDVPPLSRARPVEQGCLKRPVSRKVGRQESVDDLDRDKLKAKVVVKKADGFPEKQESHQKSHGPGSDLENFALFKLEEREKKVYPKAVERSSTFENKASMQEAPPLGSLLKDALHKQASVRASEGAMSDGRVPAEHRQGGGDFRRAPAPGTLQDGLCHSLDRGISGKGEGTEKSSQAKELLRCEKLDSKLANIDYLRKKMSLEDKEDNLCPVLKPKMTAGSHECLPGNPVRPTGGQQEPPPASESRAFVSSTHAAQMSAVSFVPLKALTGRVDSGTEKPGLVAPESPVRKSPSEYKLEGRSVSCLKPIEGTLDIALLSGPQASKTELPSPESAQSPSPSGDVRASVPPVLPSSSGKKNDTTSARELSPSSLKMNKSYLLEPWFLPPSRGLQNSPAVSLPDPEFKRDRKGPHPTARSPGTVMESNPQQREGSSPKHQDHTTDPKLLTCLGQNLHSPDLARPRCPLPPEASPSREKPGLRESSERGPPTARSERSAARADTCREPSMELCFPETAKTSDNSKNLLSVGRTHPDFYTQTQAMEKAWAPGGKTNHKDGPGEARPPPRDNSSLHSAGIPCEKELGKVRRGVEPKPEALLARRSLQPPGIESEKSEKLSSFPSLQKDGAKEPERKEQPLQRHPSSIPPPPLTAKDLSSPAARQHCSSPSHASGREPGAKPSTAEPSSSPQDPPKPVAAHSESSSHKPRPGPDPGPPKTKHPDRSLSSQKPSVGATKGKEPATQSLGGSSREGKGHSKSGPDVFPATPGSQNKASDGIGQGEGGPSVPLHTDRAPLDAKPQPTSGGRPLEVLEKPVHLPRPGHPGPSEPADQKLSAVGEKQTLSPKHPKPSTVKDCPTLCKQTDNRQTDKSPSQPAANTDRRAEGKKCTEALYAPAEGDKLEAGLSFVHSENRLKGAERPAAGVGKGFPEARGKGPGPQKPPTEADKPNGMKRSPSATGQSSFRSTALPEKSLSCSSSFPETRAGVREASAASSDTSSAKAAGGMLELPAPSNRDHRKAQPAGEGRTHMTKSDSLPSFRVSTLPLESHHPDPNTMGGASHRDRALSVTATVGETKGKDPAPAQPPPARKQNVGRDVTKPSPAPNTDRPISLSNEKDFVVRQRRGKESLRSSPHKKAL
UniProt O60476: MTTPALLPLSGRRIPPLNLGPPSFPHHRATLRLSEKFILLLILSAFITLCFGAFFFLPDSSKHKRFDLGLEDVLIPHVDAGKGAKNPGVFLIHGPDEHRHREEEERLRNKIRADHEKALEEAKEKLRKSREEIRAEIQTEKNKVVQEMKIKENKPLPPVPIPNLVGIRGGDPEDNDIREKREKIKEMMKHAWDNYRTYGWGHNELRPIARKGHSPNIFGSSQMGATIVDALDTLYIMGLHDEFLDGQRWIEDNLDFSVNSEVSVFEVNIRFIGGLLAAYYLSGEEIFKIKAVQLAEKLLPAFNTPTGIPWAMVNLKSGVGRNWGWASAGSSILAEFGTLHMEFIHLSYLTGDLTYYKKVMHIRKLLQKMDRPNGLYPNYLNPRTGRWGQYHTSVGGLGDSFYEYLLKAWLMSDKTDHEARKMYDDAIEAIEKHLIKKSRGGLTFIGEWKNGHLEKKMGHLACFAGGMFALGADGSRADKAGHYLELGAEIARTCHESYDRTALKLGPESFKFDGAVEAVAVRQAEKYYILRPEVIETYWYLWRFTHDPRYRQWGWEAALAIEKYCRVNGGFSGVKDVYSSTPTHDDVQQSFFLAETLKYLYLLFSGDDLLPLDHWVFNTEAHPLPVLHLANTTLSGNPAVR
UniProt O75608: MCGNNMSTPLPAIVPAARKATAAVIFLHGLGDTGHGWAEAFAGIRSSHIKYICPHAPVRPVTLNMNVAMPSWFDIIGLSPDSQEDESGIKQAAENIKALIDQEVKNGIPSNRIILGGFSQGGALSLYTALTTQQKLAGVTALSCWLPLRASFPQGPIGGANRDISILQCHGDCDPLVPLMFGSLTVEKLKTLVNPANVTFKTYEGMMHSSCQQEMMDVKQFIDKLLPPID
UniProt P43355: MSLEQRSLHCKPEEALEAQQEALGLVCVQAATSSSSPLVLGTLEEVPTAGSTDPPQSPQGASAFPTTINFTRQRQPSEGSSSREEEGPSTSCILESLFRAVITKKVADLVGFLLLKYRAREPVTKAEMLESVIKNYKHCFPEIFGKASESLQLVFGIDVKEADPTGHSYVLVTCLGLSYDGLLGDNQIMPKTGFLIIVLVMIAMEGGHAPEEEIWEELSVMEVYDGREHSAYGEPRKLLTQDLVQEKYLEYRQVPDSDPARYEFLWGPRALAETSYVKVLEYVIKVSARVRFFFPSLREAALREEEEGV

Key:
Assay in all cases: log2 fold change, soluble protein after heating vs DMSO (PISA); higher = thermal stabilisation; K562 lysate, 10 uM; active = over 0.2 and 3.5 SD of the protein, either way, in both replicates (recomputed)
erlotinib = compound: C#Cc1cccc(Nc2ncnc3cc(OCCOC)c(OCCOC)cc23)c1 [erlotinib]
Procedure, shortened: (§1)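 The values are log-two fold changes in thermal stability compared with solvent controls and come from duplicates. They were obtained by TMTpro 16plex LC-MS/MS, with channel sums equalised, on the supernatant after 21,000xg for 90 min. That supernatant came from crude K562 extract at 1 mg/mL protein treated with 10 μM compound for 30 min, heated for 3 min across 48°C-58°C, pooled and brought to 0.5% NP-40 at 4°C.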

[1] = compound: C/C(=N\NC(=O)C1=CC(=CC=C1)S(=O)(=O)N2CCOCC2)/C3=C(C=CC(=C3)Cl)O
Procedure, shortened: as §1

[2] = compound: C1=CC(=CC=C1C2=NC3=C(N2)C=C(C=C3)C(=O)N)OC4=CC=C(C=C4)Cl
Procedure, shortened: as §1

[3] = compound: C1=CC2=C(C=CC(=C2)/C=C\3/C(=O)NC(=NCC4=CC=CS4)S3)N=C1
Procedure, shortened: as §1

[4] = compound: C1=CC2=NC=CN=C2C=C1/C=C/3\C(=O)NC(=O)S3
Procedure, shortened: as §1

[5] = compound: C1=CC=C(C=C1)C2=NC(=C(N2)C3=CC=NC=C3)C4=CC(=C(C=C4)Cl)O
Procedure, shortened: as §1

[6] = compound: C1=CC=C2C(=C1)C3=NNC4=CC=CC(=C43)C2=O
Procedure, shortened: as §1

[7] = compound: C1CCN(C1)C(=O)NC2=CC=CC(=C2)NC3=NC=C(C(=N3)NCCC4=CN=CN4)Br
Procedure, shortened: as §1

[8] = compound: C1CN(CCC1(CC2=CC=C(C=C2)Cl)N)C3=NC=NC4=C3C=CN4
Procedure, shortened: as §1

IRAK-1-4 Inhibitor I = compound: C1COCCN1CCN2C3=CC=CC=C3N=C2NC(=O)C4=CC(=CC=C4)[N+](=O)[O-] [IRAK-1-4 Inhibitor I]
Procedure, shortened: as §1

ibrutinib = compound: C=CC(=O)N1CCC[C@@H](n2nc(-c3ccc(Oc4ccccc4)cc3)c3c(N)ncnc32)C1 [ibrutinib]
Procedure, shortened: as §1

[9] = compound: CC(=O)c1cnc2ccc(-c3cc(Cl)c(O)c(Cl)c3)nc2c1N[C@H]1CC[C@H](CN(C)C)CC1
Procedure, shortened: as §1

ralimetinib = compound: CC(C)(C)Cn1c(N)nc2ccc(-c3[nH]c(C(C)(C)C)nc3-c3ccc(F)cc3)nc21 [ralimetinib]
Procedure, shortened: as §1

[10] = compound: CC(C)(O)CC(=O)NCCn1ccc2ncnc(Nc3ccc(Oc4cccc(C(F)(F)F)c4)c(Cl)c3)c21
Procedure, shortened: as §1

[11] = compound: CC(C)C1=C2N=C(C=C(N2N=C1)NCC3=CC=CC=C3)NCCCCCCN
Procedure, shortened: as §1

[12] = compound: CC1=C(C(CC(=O)N1)C2=CC=C(C=C2)C(F)(F)F)C(=O)NC3=C(C=C4C(=C3)C=NN4)F
Procedure, shortened: as §1

[13] = compound: CC1=C(C2=C(C=C1)C(=O)C3=CC=CC=C3N2CCCN)C
Procedure, shortened: as §1

[14] = compound: CC1=C(C=C(C=C1)NC(=O)C2=CC(=CC=C2)C(C)(C)C#N)NC3=CC4=C(C=C3)N=CN(C4=O)C
Procedure, shortened: as §1

[15] = compound: CC1=C(C=C(C=C1)NC(=O)C2=CC(=CC=C2)N(C)C)NC(=O)C3=CC=C(C=C3)O
Procedure, shortened: as §1

[16] = compound: CC1=CC=C(C=C1)SC2=C3C=C(SC3=CN=C2)C(=O)N
Procedure, shortened: as §1

Target | log2 fold change (erlotinib) | log2 fold change [1] | log2 fold change [2] | log2 fold change [3] | log2 fold change [4] | log2 fold change [5] | log2 fold change [6] | log2 fold change [7] | log2 fold change [8] | log2 fold change (IRAK-1-4 Inhibitor I) | log2 fold change (ibrutinib) | log2 fold change [9] | log2 fold change (ralimetinib) | log2 fold change [10] | log2 fold change [11] | log2 fold change [12] | log2 fold change [13] | log2 fold change [14] | log2 fold change [15] | log2 fold change [16]
MARK3 (UniProt P27448) | inactive: 0.089 | inactive: -0.074 | inactive: -0.007 | inactive: 0.07 | inactive: -0.051 | inactive: 0.016 | inactive: -0.218 | inactive: -0.213 | inactive: -0.023 | inactive: -0.035 | inactive: 0.03 | inactive: -0.081 | inactive: 0.028 | inactive: -0.016 | inactive: 0.041 | inactive: 0.005 | inactive: -0.009 | inactive: 0.075 | inactive: 0.016 | inactive: 0
MAGED2 (UniProt Q9UNF1) | inactive: 0.042 | inactive: 0.021 | inactive: 0.048 | inactive: -0.049 | inactive: -0.019 | inactive: 0.036 | inactive: -0.073 | inactive: -0.061 | inactive: -0.032 | inactive: 0.086 | inactive: -0.063 | inactive: -0.057 | inactive: -0.014 | inactive: -0.141 | inactive: 0.027 | inactive: -0.009 | inactive: -0.024 | inactive: 0.005 | inactive: 0.042 | inactive: -0.098
MAGEC1 (UniProt O60732) | inactive: 0.055 | inactive: -0.024 | inactive: -0.022 | inactive: -0.001 | inactive: 0.003 | inactive: 0.039 | inactive: 0.018 | inactive: -0.016 | inactive: 0.003 | inactive: -0.001 | inactive: -0.009 | inactive: 0.018 | inactive: 0.016 | inactive: 0.016 | inactive: 0.006 | inactive: 0.008 | inactive: -0.014 | inactive: 0 | inactive: 0.011 | inactive: 0.037
MAP4 (UniProt P27816) | inactive: 0.001 | inactive: -0.013 | inactive: 0.031 | inactive: -0.003 | inactive: -0.001 | inactive: 0.023 | inactive: -0.002 | inactive: -0.007 | inactive: 0.003 | inactive: 0.024 | inactive: 0.002 | inactive: -0.005 | inactive: -0.016 | inactive: -0.002 | inactive: 0.016 | inactive: -0.023 | inactive: -0.016 | inactive: 0.006 | inactive: -0.001 | inactive: -0.008
MACF1 (UniProt H3BQK9) | inactive: -0.003 | inactive: 0 | inactive: -0.033 | inactive: -0.003 | inactive: 0.009 | inactive: 0.035 | inactive: -0.028 | inactive: -0.02 | inactive: -0.021 | inactive: -0.027 | inactive: 0.001 | inactive: 0.02 | inactive: 0.003 | inactive: -0.004 | inactive: 0.022 | inactive: 0.012 | inactive: -0.051 | inactive: 0.008 | inactive: 0.016 | inactive: -0.007
LYPLAL1 (UniProt Q5VWZ2) | inactive: 0.007 | inactive: 0.052 | inactive: 0.015 | inactive: 0.003 | inactive: -0.006 | inactive: 0.01 | inactive: -0.033 | inactive: -0.027 | inactive: 0.025 | inactive: 0.019 | inactive: 0.009 | inactive: -0.007 | inactive: -0.017 | inactive: -0.063 | inactive: 0 | inactive: -0.02 | inactive: -0.008 | inactive: 0.012 | inactive: -0.012 | inactive: -0.016
LZTR1 (UniProt Q8N653) | inactive: 0.051 | inactive: 0.099 | inactive: -0.018 | inactive: -0.015 | inactive: 0.022 | inactive: -0.005 | inactive: -0.071 | inactive: 0.066 | inactive: 0.106 | inactive: 0.08 | inactive: -0.074 | inactive: -0.441 | inactive: -0.023 | inactive: 0.102 | inactive: 0.009 | inactive: 0.048 | inactive: -0.014 | inactive: -0.001 | inactive: 0.113 | inactive: 0.041
LYPLA2 (UniProt O95372) | inactive: 0.032 | inactive: 0.021 | inactive: 0.029 | inactive: -0.005 | inactive: -0.036 | inactive: -0.009 | inactive: 0.033 | inactive: -0.107 | inactive: -0.027 | inactive: -0.058 | inactive: -0.007 | inactive: -0.078 | inactive: 0.014 | inactive: 0.003 | inactive: 0.04 | inactive: -0.086 | inactive: 0.022 | inactive: 0.017 | inactive: 0.002 | inactive: 0.08
MAK16 (UniProt Q9BXY0) | inactive: -0.012 | inactive: -0.022 | inactive: -0.09 | inactive: 0.012 | inactive: 0.002 | inactive: 0.047 | inactive: -0.054 | inactive: -0.019 | inactive: 0.031 | inactive: -0.039 | inactive: -0.012 | inactive: 0.005 | inactive: -0.031 | inactive: -0.067 | inactive: 0.03 | inactive: -0.039 | inactive: -0.026 | inactive: 0.006 | inactive: 0.003 | inactive: -0.065
MAGEA9 (UniProt P43362) | inactive: 0.001 | inactive: -0.118 | inactive: -0.027 | inactive: -0.015 | inactive: -0.044 | inactive: -0.005 | inactive: -0.051 | inactive: 0.012 | inactive: 0.022 | inactive: 0.03 | inactive: 0.022 | inactive: -0.009 | inactive: -0.002 | inactive: -0.032 | inactive: -0.02 | inactive: -0.029 | inactive: -0.013 | inactive: 0.061 | inactive: 0.015 | inactive: 0.028
MAST4 (UniProt O15021) | inactive: -0.019 | inactive: -0.026 | inactive: -0.031 | inactive: 0.027 | inactive: -0.044 | inactive: 0.01 | active: 0.384 | inactive: 0.149 | inactive: -0.011 | inactive: -0.008 | inactive: 0.019 | active: 0.423 | inactive: 0.04 | inactive: 0.061 | inactive: -0.032 | inactive: -0.075 | inactive: 0.032 | inactive: -0.173 | inactive: -0.023 | inactive: 0.049
MAN1A2 (UniProt O60476) | inactive: -0.011 | inactive: -0.017 | inactive: 0.01 | inactive: 0.043 | inactive: 0.025 | inactive: -0.014 | inactive: -0.104 | inactive: 0.005 | inactive: -0.009 | inactive: -0.032 | inactive: 0.01 | inactive: -0.046 | inactive: 0.017 | inactive: -0.053 | inactive: -0.026 | inactive: 0.017 | inactive: 0.007 | inactive: 0.007 | inactive: -0.004 | inactive: -0.043
MASTL (UniProt Q96GX5) | inactive: -0.089 | inactive: -0.05 | inactive: -0.027 | inactive: 0.079 | inactive: 0.076 | inactive: -0.005 | inactive: -0.167 | inactive: 0.007 | inactive: -0.072 | inactive: 0.018 | inactive: 0.02 | inactive: 0.161 | inactive: 0.014 | inactive: -0.022 | inactive: 0.004 | inactive: 0 | inactive: -0.041 | inactive: -0.023 | inactive: 0.089 | inactive: 0.027
LYPLA1 (UniProt O75608) | inactive: 0.01 | inactive: 0.029 | inactive: -0.034 | inactive: -0.014 | inactive: -0.038 | inactive: 0.039 | inactive: 0.03 | inactive: -0.008 | inactive: 0.011 | inactive: 0.019 | inactive: 0.009 | inactive: -0.02 | inactive: -0.014 | inactive: -0.019 | inactive: 0.005 | inactive: -0.031 | inactive: -0.019 | inactive: -0.009 | inactive: -0.044 | inactive: 0.056
MAGEA1 (UniProt P43355) | inactive: -0.054 | inactive: 0.088 | inactive: -0.005 | inactive: 0.042 | inactive: -0.007 | inactive: -0.003 | inactive: 0.048 | inactive: -0.009 | inactive: -0.034 | inactive: -0.004 | inactive: 0.075 | inactive: 0.074 | inactive: 0.028 | inactive: 0.014 | inactive: -0.002 | inactive: 0.038 | inactive: 0.007 | inactive: -0.077 | inactive: 0.019 | inactive: 0.064
MAEA (UniProt Q7L5Y9) | inactive: -0.035 | inactive: 0.007 | inactive: -0.042 | inactive: -0.031 | inactive: -0.011 | inactive: -0.02 | inactive: 0.017 | inactive: -0.008 | inactive: -0.018 | inactive: -0.033 | inactive: 0.037 | inactive: -0.018 | inactive: 0.028 | inactive: 0.028 | inactive: -0.02 | inactive: 0.01 | inactive: -0.01 | inactive: 0.022 | inactive: 0.01 | inactive: 0

Part of the list above, limited to log2 fold change (IRAK-1-4 Inhibitor I):
Target | log2 fold change (IRAK-1-4 Inhibitor I)
LZTR1 (UniProt Q8N653) | inactive: 0.08
MAEA (UniProt Q7L5Y9) | inactive: -0.033
